# PMC10341622
# Chains of the proteins cited; added tags and fusions are not shown. Residues count along the entry.
# UniProt P04977, residues 35-269: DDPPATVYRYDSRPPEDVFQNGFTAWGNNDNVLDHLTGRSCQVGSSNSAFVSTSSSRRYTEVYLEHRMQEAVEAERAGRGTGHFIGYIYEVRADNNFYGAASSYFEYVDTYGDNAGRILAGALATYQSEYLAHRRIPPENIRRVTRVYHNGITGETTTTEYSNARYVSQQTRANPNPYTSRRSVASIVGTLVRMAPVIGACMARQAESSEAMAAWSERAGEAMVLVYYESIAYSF
# UniProt P59665, residues 65-94: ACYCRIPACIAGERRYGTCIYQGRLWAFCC
# These are yes or no findings as the source states them, for the method shown. Some entries that bind do so weakly or less than the wild type.
# How the values were obtained:
# [1] = target: recombinant PTS1, His-tag enzymatically removed (Bordetella pertussis) (UniProt P04977); experiment: far-Western, overlay or dot blot; both purified
# [2] = target: recombinant PTS1 with N-terminal 6x His-tag (Bordetella pertussis) (UniProt P04977); experiment: far-Western, overlay or dot blot; both purified
substance,measurement,setting,value
human α-defensin-1 (from UniProt P59665 65-94) (peptide),binding,[1],binds
same,binding,[2],binds
